Drawing on PMC7822929, this text covers binding for one substance.

Chains of the proteins cited; added tags and fusions are not shown. Lines headed by an entry give the natural chain unless they say otherwise; changes in a name come on top. Residues count along the entry.
UniProt P07711: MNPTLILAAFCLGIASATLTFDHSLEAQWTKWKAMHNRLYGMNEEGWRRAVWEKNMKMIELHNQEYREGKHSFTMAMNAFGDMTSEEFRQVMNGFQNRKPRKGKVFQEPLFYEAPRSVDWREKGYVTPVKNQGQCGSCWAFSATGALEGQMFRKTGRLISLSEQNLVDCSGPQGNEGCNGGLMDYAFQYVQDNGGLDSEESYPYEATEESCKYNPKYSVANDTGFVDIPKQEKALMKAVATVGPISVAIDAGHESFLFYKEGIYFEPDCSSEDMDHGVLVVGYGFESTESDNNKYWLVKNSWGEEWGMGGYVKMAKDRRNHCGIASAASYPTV
UniProt P14625, residues 22-803: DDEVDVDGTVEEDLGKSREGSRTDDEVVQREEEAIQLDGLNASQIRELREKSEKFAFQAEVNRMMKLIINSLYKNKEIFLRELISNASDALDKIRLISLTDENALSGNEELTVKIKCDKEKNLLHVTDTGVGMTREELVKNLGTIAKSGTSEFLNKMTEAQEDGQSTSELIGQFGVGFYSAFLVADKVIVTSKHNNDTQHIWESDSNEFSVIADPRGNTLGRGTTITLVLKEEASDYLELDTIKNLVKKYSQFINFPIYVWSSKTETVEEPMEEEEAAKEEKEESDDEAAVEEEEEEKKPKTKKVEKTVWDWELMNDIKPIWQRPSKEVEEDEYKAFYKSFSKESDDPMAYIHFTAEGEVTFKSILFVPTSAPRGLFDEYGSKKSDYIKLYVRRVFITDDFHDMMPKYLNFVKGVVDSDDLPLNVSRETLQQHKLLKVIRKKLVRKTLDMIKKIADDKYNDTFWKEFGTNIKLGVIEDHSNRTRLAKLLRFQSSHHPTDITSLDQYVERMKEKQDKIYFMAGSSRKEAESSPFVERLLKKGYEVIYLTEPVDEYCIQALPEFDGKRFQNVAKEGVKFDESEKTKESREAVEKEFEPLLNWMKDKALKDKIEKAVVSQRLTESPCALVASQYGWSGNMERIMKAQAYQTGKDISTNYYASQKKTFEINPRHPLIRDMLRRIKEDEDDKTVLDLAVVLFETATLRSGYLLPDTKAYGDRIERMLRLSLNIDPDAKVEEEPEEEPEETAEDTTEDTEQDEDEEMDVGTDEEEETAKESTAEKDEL

These are yes or no findings as the source states them, for the method shown. In cells and extracts the contact can be indirect. A result given as binding can be weak or reduced; the word gives no strength.

The assay deals with Cathepsin L, endogenous in human monocyte-derived M2 macrophages (human (endogenous in monocyte-derived macrophages)) (UniProt P07711). Put plainly: proximity ligation; Duolink PLA in situ in activated M1 and M2 macrophages, treated or not with Tg, pretreated or not with PU-WS13 or DMSO; pairs of primary antibodies (anti-C3d + anti-GRP94; anti-GRP94 + anti-TLR4; anti-GRP94 + anti-cathepsin L); spots per cell counted.

Consider “Glucose-regulated protein 94 (GRP94), endogenous in human monocyte-derived macrophages (from UniProt P14625 22-803)”, for which the binding entry is recorded as “binds”.
